# This is one part of the list.
# Protein sequences, listed by entry. Tags and fused reporters are not part of them. Lines headed by an entry give the natural chain unless they say otherwise; changes in a name come on top.
# UniProt Q9Y3A2: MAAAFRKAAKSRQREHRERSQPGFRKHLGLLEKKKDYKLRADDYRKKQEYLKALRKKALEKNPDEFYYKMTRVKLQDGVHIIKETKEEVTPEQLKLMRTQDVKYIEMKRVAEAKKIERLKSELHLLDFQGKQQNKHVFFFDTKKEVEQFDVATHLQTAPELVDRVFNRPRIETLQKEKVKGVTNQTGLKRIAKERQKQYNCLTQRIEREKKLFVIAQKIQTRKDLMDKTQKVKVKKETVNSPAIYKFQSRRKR
# UniProt O14957: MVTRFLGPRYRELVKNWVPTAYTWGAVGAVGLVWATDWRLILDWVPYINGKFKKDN
# UniProt C9J7I0: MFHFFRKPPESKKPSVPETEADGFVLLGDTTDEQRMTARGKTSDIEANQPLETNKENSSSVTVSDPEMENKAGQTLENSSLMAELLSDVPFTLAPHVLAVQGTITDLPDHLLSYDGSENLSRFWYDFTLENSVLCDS
# UniProt Q86T82: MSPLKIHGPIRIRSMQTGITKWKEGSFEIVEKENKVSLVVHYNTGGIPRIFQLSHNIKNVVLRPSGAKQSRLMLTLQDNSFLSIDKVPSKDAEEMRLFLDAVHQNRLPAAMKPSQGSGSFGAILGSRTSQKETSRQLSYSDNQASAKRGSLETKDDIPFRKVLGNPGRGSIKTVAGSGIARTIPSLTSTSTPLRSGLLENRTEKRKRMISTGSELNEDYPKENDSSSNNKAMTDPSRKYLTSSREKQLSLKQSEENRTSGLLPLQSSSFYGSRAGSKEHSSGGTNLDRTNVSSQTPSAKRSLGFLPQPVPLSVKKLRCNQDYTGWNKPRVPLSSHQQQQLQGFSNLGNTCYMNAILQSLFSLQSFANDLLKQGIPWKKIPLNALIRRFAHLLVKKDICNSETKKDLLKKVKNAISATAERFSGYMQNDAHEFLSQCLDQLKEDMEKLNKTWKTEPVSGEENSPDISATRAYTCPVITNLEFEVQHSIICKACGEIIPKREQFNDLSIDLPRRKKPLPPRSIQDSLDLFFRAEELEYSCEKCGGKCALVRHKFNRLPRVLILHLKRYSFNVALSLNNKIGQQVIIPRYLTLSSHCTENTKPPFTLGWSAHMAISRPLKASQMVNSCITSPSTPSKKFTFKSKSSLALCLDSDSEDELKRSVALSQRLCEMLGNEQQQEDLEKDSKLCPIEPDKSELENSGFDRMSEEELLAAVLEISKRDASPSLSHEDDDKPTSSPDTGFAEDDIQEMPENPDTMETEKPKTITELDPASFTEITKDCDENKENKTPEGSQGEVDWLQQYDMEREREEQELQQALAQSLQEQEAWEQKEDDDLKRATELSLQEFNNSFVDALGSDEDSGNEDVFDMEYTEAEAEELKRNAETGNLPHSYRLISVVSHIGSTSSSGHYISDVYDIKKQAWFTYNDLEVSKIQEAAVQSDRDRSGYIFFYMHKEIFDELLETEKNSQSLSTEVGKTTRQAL
# UniProt O75385: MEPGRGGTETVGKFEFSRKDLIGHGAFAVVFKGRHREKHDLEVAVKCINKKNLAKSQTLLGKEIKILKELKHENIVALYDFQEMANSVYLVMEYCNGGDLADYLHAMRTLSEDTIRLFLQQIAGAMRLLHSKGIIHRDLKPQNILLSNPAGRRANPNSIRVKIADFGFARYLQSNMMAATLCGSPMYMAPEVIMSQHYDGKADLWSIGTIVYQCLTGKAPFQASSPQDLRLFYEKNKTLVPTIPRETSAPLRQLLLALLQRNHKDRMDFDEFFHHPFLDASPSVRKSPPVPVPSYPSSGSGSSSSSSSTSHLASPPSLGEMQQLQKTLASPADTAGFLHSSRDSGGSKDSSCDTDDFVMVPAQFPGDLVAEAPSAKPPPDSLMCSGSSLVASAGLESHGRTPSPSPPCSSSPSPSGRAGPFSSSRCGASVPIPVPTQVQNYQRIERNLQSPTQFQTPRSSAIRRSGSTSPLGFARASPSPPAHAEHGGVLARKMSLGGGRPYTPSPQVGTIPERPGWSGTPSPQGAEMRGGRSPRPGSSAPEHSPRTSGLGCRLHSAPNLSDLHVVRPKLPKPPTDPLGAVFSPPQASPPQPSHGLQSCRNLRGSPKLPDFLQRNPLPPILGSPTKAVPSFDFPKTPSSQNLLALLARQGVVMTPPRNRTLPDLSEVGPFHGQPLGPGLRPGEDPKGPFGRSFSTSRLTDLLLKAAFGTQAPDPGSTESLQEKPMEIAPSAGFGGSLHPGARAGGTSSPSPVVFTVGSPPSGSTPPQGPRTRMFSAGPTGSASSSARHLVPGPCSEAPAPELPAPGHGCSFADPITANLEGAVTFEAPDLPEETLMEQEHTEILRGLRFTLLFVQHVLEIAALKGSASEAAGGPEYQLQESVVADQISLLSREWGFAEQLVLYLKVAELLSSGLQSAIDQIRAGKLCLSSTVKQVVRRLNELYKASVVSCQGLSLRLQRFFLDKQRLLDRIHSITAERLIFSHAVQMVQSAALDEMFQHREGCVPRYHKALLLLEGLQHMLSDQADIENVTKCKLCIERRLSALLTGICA
# UniProt P55851: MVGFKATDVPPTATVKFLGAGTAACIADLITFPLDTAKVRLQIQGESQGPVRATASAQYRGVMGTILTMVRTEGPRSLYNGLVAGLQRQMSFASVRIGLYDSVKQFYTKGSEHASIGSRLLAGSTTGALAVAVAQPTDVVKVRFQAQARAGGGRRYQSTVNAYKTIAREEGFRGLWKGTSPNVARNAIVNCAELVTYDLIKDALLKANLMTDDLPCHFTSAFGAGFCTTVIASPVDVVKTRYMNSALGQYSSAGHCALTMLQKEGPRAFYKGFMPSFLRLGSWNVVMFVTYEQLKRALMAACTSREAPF
# UniProt Q9BQ65: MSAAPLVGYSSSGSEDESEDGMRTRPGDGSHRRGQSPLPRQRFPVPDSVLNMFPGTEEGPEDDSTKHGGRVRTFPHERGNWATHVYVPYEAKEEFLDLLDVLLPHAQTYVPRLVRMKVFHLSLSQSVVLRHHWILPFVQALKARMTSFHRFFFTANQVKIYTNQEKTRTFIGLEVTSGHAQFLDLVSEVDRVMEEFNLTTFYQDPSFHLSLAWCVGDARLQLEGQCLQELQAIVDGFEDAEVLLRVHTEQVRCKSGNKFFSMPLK
# UniProt Q9ULK5: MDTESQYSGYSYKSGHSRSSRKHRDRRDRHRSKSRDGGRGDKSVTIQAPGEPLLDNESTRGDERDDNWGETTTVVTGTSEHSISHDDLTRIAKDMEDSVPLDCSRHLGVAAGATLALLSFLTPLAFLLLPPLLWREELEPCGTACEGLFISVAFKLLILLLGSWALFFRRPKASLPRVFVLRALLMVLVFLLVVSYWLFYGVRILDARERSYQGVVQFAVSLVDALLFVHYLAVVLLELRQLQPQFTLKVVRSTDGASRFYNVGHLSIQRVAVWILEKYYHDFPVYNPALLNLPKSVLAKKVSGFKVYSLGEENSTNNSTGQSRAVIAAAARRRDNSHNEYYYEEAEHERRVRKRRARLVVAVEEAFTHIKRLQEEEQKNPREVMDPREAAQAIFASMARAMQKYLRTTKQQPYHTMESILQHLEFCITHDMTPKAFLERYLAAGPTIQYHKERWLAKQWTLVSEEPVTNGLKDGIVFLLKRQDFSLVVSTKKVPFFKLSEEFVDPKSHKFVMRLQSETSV
# UniProt O75317, whole entry, looked up: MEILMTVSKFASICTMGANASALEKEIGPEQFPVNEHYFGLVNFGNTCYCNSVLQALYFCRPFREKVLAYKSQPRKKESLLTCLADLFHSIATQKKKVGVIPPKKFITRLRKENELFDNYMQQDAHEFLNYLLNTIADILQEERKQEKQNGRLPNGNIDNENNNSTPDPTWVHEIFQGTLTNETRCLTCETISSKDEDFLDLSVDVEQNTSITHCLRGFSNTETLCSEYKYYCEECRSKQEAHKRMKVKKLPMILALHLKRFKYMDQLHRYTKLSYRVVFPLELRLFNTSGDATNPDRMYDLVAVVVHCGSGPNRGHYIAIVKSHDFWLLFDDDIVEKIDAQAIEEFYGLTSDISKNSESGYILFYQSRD
# UniProt Q9BRU9: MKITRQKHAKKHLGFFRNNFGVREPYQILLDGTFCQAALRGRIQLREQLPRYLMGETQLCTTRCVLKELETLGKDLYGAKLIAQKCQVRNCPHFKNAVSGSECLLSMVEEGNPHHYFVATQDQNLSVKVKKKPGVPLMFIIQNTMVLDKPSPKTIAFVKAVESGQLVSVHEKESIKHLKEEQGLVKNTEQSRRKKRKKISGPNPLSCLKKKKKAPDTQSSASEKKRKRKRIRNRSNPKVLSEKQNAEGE
# UniProt Q9UDW1: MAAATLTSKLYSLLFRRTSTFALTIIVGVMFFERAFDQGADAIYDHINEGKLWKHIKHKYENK
# UniProt Q9P275: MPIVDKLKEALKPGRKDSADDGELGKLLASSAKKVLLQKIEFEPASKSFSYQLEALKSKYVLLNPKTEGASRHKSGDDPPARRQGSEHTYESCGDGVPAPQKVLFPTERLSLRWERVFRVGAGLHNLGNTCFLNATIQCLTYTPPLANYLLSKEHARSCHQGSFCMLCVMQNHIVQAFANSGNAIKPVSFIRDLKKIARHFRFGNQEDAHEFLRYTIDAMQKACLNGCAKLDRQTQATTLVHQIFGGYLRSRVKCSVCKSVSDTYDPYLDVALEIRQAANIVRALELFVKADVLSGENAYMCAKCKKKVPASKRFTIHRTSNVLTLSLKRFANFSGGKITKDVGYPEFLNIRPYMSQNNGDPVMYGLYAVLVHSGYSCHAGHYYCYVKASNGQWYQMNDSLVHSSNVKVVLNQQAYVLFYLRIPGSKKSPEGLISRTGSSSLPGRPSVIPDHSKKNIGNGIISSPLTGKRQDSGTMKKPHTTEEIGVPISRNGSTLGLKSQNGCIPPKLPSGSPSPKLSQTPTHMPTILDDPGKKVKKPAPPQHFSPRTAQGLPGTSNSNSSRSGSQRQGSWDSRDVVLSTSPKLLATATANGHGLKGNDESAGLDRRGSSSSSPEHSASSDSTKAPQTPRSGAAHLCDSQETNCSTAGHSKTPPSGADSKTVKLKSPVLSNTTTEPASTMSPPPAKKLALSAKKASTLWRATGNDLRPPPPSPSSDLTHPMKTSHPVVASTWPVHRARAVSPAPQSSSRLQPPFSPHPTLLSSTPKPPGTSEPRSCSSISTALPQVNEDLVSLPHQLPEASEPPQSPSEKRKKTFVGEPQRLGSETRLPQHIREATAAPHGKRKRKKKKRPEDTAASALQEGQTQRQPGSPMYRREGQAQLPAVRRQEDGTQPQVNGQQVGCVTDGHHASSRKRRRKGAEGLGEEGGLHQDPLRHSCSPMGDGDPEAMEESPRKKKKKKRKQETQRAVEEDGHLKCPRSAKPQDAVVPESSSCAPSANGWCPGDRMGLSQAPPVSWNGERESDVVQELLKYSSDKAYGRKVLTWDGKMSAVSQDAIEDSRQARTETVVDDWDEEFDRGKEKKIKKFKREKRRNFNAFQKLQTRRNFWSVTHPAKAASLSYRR
# UniProt Q14135: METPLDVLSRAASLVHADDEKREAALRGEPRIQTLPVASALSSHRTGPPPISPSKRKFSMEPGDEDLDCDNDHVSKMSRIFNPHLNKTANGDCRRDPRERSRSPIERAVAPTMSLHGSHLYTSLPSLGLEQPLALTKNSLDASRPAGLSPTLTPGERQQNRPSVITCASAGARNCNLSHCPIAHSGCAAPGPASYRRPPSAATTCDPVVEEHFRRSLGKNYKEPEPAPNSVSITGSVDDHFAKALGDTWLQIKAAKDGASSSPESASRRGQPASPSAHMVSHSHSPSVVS
# Experiments:
# Test in all cases: log2 fold change, soluble protein after heating vs DMSO (PISA); higher = thermal stabilisation; K562 lysate, 10 uM; active = over 0.2 and 3.5 SD of the protein, either way, in both replicates (recomputed)
# [1] = compound: C1=CC=C(C=C1)[C@H](COC2=CC3=C(C=C2)NC(=O)N3)NC(=O)C4=CC=CN(C4=O)CC5=CC(=C(C=C5)F)F
# Method in brief: (§1)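 The values are log-two fold changes in thermal stability compared with solvent controls and come from duplicates. They were obtained by TMTpro 16plex LC-MS/MS, with channel sums equalised, on the supernatant after 21,000xg for 90 min. That supernatant came from crude K562 extract at 1 mg/mL protein treated with 10 μM compound for 30 min, heated for 3 min across 48°C-58°C, pooled and brought to 0.5% NP-40 at 4°C.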
# [2] = compound: CC1=C(SC2=C1C(=N[C@H](C3=NN=C(N32)C)CC(=O)N)C4=CC=C(C=C4)Cl)C
# Method in brief: as §1
# [3] = compound: Cc1sc2c(c1C)C(c1ccc(Cl)cc1)=N[C@@H](CC(=O)OC(C)(C)C)c1nnc(C)n1-2
# Method in brief: as §1
# [4] = compound: CC1=C2C(=CC=C1)N=C(N(C2=O)C3=CC=CC=C3C)CN4C=NC5=C(N=CN=C54)N
# Method in brief: as §1
# [5] = compound: c1ccc([C@@H]2C[C@H]2NC2CCNCC2)cc1
# Method in brief: as §1
Target,log2 fold change [1],log2 fold change [2],log2 fold change [3],log2 fold change [4],log2 fold change [5]
USP20 (UniProt Q9Y2K6),inactive: -0.178,inactive: -0.086,inactive: 0.04,–,–
USP38 (UniProt Q8NB14),inactive: 0.028,inactive: 0.071,inactive: -0.03,inactive: -0.1,inactive: -0.01
ULBP1 (UniProt Q9BZM6),inactive: 0.048,inactive: -0.033,inactive: -0.003,inactive: 0.003,inactive: -0.192
VIPAS39 (UniProt Q9H9C1),inactive: 0.004,inactive: 0.028,inactive: -0.095,inactive: 0.129,inactive: -0.034
UTP11 (UniProt Q9Y3A2),inactive: -0.289,inactive: 0.051,inactive: 0.147,inactive: 0.114,inactive: -0.017
UQCR11 (UniProt O14957),inactive: 0.054,inactive: -0.282,inactive: -0.022,inactive: 0.119,inactive: -0.029
VCL (UniProt P18206),inactive: 0.001,inactive: 0.006,inactive: -0.032,inactive: 0,inactive: -0.044
UTP4 (UniProt Q969X6),inactive: 0.05,inactive: 0,inactive: 0.026,inactive: -0.033,inactive: 0.067
UMAD1 (UniProt C9J7I0),–,–,inactive: -0.003,–,inactive: 0.064
USP19 isoform 4 (UniProt O94966),–,–,inactive: -0.133,inactive: 0.068,–
UPF3A (UniProt Q9H1J1),inactive: -0.17,inactive: 0.142,–,–,inactive: 0.034
USP37 (UniProt Q86T82),–,–,–,inactive: 0.087,–
URB2 (UniProt Q14146),–,–,inactive: 0.018,inactive: -0.048,inactive: -0.017
UNC13A (UniProt Q9UPW8),–,–,–,–,inactive: -0.966
UNG (UniProt P13051),inactive: -0.036,inactive: -0.026,inactive: 0.144,–,inactive: -0.036
ULK1 (UniProt O75385),–,–,inactive: 0.061,inactive: 0.021,inactive: 0.035
USP40 isoform 3 (UniProt Q9NVE5),–,–,inactive: 0,–,–
UHRF2 (UniProt Q96PU4),–,–,–,inactive: 0.559,–
VEGFA (UniProt H0YBI8),–,–,–,–,inactive: -0.183

# 10 successive records from above:
Target,log2 fold change [1],log2 fold change [2],log2 fold change [3],log2 fold change [4],log2 fold change [5]
UTP11 (UniProt Q9Y3A2),inactive: -0.289,inactive: 0.051,inactive: 0.147,inactive: 0.114,inactive: -0.017
UQCR11 (UniProt O14957),inactive: 0.054,inactive: -0.282,inactive: -0.022,inactive: 0.119,inactive: -0.029
VCL (UniProt P18206),inactive: 0.001,inactive: 0.006,inactive: -0.032,inactive: 0,inactive: -0.044
UTP4 (UniProt Q969X6),inactive: 0.05,inactive: 0,inactive: 0.026,inactive: -0.033,inactive: 0.067
UMAD1 (UniProt C9J7I0),–,–,inactive: -0.003,–,inactive: 0.064
USP19 isoform 4 (UniProt O94966),–,–,inactive: -0.133,inactive: 0.068,–
UPF3A (UniProt Q9H1J1),inactive: -0.17,inactive: 0.142,–,–,inactive: 0.034
USP37 (UniProt Q86T82),–,–,–,inactive: 0.087,–
URB2 (UniProt Q14146),–,–,inactive: 0.018,inactive: -0.048,inactive: -0.017
UNC13A (UniProt Q9UPW8),–,–,–,–,inactive: -0.966

# Later entries.

Target,log2 fold change [1],log2 fold change [2],log2 fold change [3],log2 fold change [4],log2 fold change [5]
UQCRB (UniProt E5RHG9),–,–,inactive: 0.1,–,–
VASN (UniProt Q6EMK4),–,–,inactive: -0.017,–,–
USP6NL isoform 2 (UniProt Q92738),–,–,–,inactive: -0.073,inactive: -0.045
VEGFA isoform 14 (UniProt P15692),–,–,–,–,inactive: -0.132
UCP2 (UniProt P55851),–,–,–,inactive: -0.003,–
USB1 (UniProt Q9BQ65),–,–,inactive: 0,inactive: -0.131,inactive: 0.123
UNC119 (UniProt Q13432),–,–,inactive: 0.072,–,–
USP30 (UniProt Q70CQ3),–,–,inactive: 0.302,–,inactive: 0.116
VANGL2 (UniProt Q9ULK5),inactive: -0.073,inactive: 0.167,inactive: -0.189,–,inactive: -0.093
USP12 (UniProt O75317),–,–,–,inactive: 0.007,inactive: -0.151
UTP23 (UniProt Q9BRU9),inactive: -0.095,inactive: 0.11,inactive: 0.025,–,inactive: 0.14
UNC13B isoform 2 (UniProt O14795),–,–,inactive: -0.009,inactive: 0.122,–
VCX3B (UniProt Q9H321),inactive: -0.037,inactive: 0.037,inactive: -0.079,–,inactive: -0.059
UQCR10 (UniProt Q9UDW1),–,–,inactive: 0.084,inactive: 0.018,inactive: -0.053
USP15 isoform 3 (UniProt Q9Y4E8),–,–,inactive: 0.005,–,–
UTRN isoform 2 (UniProt P46939),inactive: 0.026,inactive: 0.037,–,–,inactive: 0.062
USP36 (UniProt Q9P275),–,–,–,inactive: 0.056,inactive: 0.066
VGLL4 isoform 4 (UniProt Q14135),inactive: 0.222,inactive: 0.038,inactive: -0.025,–,inactive: 0.036

# Reference: the supplement of paper PMC10849652
